Test results from the supplement of paper PMC4604168 (melanoma cell lines).
The list shows a part of the results. Repeats are few or missing, and single values can be far off.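 Imaging used 1,536-well plates; nuclei positive for cleaved PARP by antibody were divided by total DNA-stained nuclei to yield the apoptosis fraction. Doses for screening kept most cells viable, and cell lines differ markedly in resting and induced cleaved-PARP levels.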

Legend:
Assay in all cases: cleaved PARP positive nuclei fraction relative to DMSO control; melanoma cells; higher = more apoptosis
Conditions in all cases: library dose: low library concentration; 72 h
[1] = test system: MeWo
[2] = test system: RPMI7951
[3] = test system: RVH-421
[4] = test system: SkMel28
[5] = test system: SkMel2
[6] = test system: SkMel30
[7] = test system: UACC62
[8] = test system: WM115
[9] = test system: WM1716
[10] = test system: WM1745
[11] = test system: WM3526
[12] = test system: WM3619
[13] = test system: WM451Lu
[14] = test system: SkMel5
[15] = test system: UACC257

SMILES	cleaved PARP positive nuclei fraction [1]	cleaved PARP positive nuclei fraction [2]	cleaved PARP positive nuclei fraction [3]	cleaved PARP positive nuclei fraction [4]	cleaved PARP positive nuclei fraction [5]	cleaved PARP positive nuclei fraction [6]	cleaved PARP positive nuclei fraction [7]	cleaved PARP positive nuclei fraction [8]	cleaved PARP positive nuclei fraction [9]	cleaved PARP positive nuclei fraction [10]	cleaved PARP positive nuclei fraction [11]	cleaved PARP positive nuclei fraction [12]	cleaved PARP positive nuclei fraction [13]	cleaved PARP positive nuclei fraction [14]	cleaved PARP positive nuclei fraction [15]
NC1(c2ccc(-c3nc4ccn5c(=O)[nH]nc5c4cc3-c3ccccc3)cc2)CCC1 + Nc1nc(F)nc2c1ncn2[C@@H]1O[C@H](CO)[C@@H](O)[C@@H]1O [fludarabine] (first compound 0.4 µM, partner dose 0.2 µM)	215%	51.4%	89.8%	116%	285%	1940%	1090%	367%	36.1%	88.2%	853%	85.1%	199%	–	–
CC1(C)CCC(c2ccc(Cl)cc2)=C(CN2CCN(c3ccc(C(=O)NS(=O)(=O)c4ccc(N[C@H](CCN5CCOCC5)CSc5ccccc5)c(S(=O)(=O)C(F)(F)F)c4)cc3)CC2)C1 + COc1ccc2c(c1)CCC1C2CCC2(C)C(NCCCCCCN3C(=O)C=CC3=O)CCC12 [U73122] (first compound 0.4 µM, partner dose 0.4 µM)	117%	336%	183%	167%	–	61.8%	209%	135%	214%	845%	70.8%	112%	97.9%	209%	205%
CCCCCCCCc1ccc(CCC(N)(CO)CO)cc1 [fingolimod] + COc1cc(N2CCC(N3CCN(C)CC3)CC2)ccc1Nc1ncc(Cl)c(Nc2ccccc2S(=O)(=O)C(C)C)n1 [NVP-TAE684] (first compound 2 µM, partner dose 0.08 µM)	100%	296%	87.3%	370%	–	45.4%	198%	102%	185%	129%	73%	95.4%	50.7%	206%	91.5%
Cn1cnc2c(F)c(Nc3ccc(Br)cc3Cl)c(C(=O)NOCCO)cc21 [selumetinib] + O=C(O)c1ccc2c(c1)nc(Nc1cccc(Cl)c1)c1ccncc12 [CX4945] (first compound 0.015 µM, partner dose 0.4 µM)	153%	187%	218%	40.8%	–	33%	112%	42.4%	32.2%	91.1%	122%	167%	71.5%	–	–
C[C@@H](N)c1ccc(C(=O)Nc2ccnc3[nH]ccc23)cc1 + CN(c1ncccc1CNc1nc(Nc2ccc3c(c2)CC(=O)N3)ncc1C(F)(F)F)S(C)(=O)=O [PF562271] (first compound 0.4 µM, partner dose 0.08 µM)	284%	430%	147%	107%	191%	59.1%	36%	66.1%	143%	172%	77.5%	93.2%	49.4%	–	–
CC1(C)CCC(c2ccc(Cl)cc2)=C(CN2CCN(c3ccc(C(=O)NS(=O)(=O)c4ccc(N[C@H](CCN5CCOCC5)CSc5ccccc5)c(S(=O)(=O)C(F)(F)F)c4)cc3)CC2)C1 + Nc1nc(F)nc2c1ncn2[C@@H]1O[C@H](CO)[C@@H](O)[C@@H]1O [fludarabine] (first compound 0.4 µM, partner dose 0.2 µM)	2500%	370%	234%	699%	1270%	4230%	678%	4170%	146%	649%	1890%	156%	416%	–	–
C[C@]1(O)C[C@@H](c2nc(-c3ccc4ccc(-c5ccccc5)nc4c3)c3c(N)nccn32)C1 + Cn1cc(/C=C2\C(=O)Nc3cccnc32)c2ccccc21 [GW441756] (first compound 0.4 µM, partner dose 0.4 µM)	44.7%	138%	181%	154%	–	114%	152%	70.5%	66.2%	116%	58.7%	103%	28.8%	47.9%	336%
NC(=O)c1ccc(N(C(N)=O)c2c(F)cccc2F)nc1-c1ccc(F)cc1F + CCc1ccc(CCOc2ccc(CC3SC(=O)NC3=O)cc2)nc1 [pioglitazone] (first compound 0.4 µM, partner dose 2 µM)	24.6%	75.4%	110%	65.4%	–	34.1%	63.1%	134%	99%	84.9%	48.7%	120%	39.2%	67.9%	243%
C[C@]1(O)C[C@@H](c2nc(-c3ccc4ccc(-c5ccccc5)nc4c3)c3c(N)nccn32)C1 + CC(=O)c1c(C)c2cnc(Nc3ccc(N4CCNCC4)cn3)nc2n(C2CCCC2)c1=O [palbociclib] (first compound 0.4 µM, partner dose 0.04 µM)	48.2%	150%	56.3%	251%	–	63.6%	158%	94.7%	41.1%	115%	57.1%	209%	95.3%	–	–
Cn1cnc2c(F)c(Nc3ccc(Br)cc3Cl)c(C(=O)NOCCO)cc21 [selumetinib] + OCCn1cc(-c2cnc3nnn(Cc4ccc5ncccc5c4)c3n2)cn1 [PF04217903] (first compound 0.015 µM, partner dose 1 µM)	293%	174%	131%	39.4%	–	178%	189%	249%	94.2%	85.4%	205%	105%	112%	38.4%	79.4%
CC(=O)O[C@@]12CO[C@@H]1C[C@H](O)[C@@]1(C)C(=O)[C@H](O)C3=C(C)[C@@H](OC(=O)[C@H](O)[C@@H](NC(=O)OC(C)(C)C)c4ccccc4)C[C@@](O)([C@@H](OC(=O)c4ccccc4)[C@H]21)C3(C)C [Docetaxel] + CC(C)C[C@H](NC(=O)[C@H](Cc1ccccc1)NC(=O)c1cnccn1)B(O)O [Bortezomib] (first compound 0.0001 µM, partner dose 0.001 µM)	873%	302%	77.3%	655%	–	261%	531%	271%	110%	194%	80.4%	127%	157%	–	–
CS(=O)(=O)c1ccc(C(=O)Nc2ccc(Cl)c(-c3ccccn3)c2)c(Cl)c1 [vismodegib] + CCCS(=O)(=O)Nc1ccc(F)c(C(=O)c2c[nH]c3ncc(Cl)cc23)c1F [PLX4720] (first compound 1 µM, partner dose 0.08 µM)	302%	82.1%	135%	74.5%	76.7%	86.7%	222%	141%	111%	97.4%	100%	91%	80.4%	–	–
Cn1cnc2c(F)c(Nc3ccc(Br)cc3Cl)c(C(=O)NOCCO)cc21 [selumetinib] + C=CCNC1=C2C[C@@H](C)C[C@H](OC)[C@H](O)[C@@H](C)/C=C(\C)[C@H](OC(N)=O)[C@@H](OC)/C=C\C=C(/C)C(=O)NC(=CC1=O)C2=O [Tanespimycin] (first compound 0.015 µM, partner dose 0.002 µM)	121%	87.6%	151%	143%	–	70.5%	170%	190%	135%	103%	115%	113%	62.9%	–	–
NC(=O)c1ccc(N(C(N)=O)c2c(F)cccc2F)nc1-c1ccc(F)cc1F + COCC[n+]1c2c(n(Cc3cnccn3)c1C)C(=O)c1ccccc1C2=O [YM155] (first compound 0.4 µM, partner dose 0.0004 µM)	387%	89.9%	127%	230%	190%	48.9%	87.8%	153%	196%	158%	77.9%	91.6%	118%	–	–
CCN(CC)CCNC(=O)c1c(C)[nH]c(/C=C2\C(=O)Nc3ccc(F)cc32)c1C [sunitinib] + CC1(C)NC(=O)N(c2ccc([N+](=O)[O-])c(C(F)(F)F)c2)C1=O [nilutamide] (first compound 0.4 µM, partner dose 1 µM)	442%	100%	58.1%	38%	–	172%	189%	22.9%	72.7%	114%	62.2%	77.7%	75.8%	77.9%	137%
Cn1sc(=O)n(Cc2ccccc2)c1=O + O=C(O)[C@@H]1[O][Sb](=[O])([O][Sb]2(=[O])[O][C@H]([C@H](O)CO)[C@H](O)[C@H](C(=O)O)[O]2)[O][C@H]([C@H](O)CO)[C@@H]1O [stibogluconate] (first compound 0.4 µM, partner dose 2 µM)	68.6%	164%	113%	22.5%	–	74%	100%	71.2%	22.2%	89.9%	239%	102%	92%	–	–
CN(c1ncccc1CNc1nc(Nc2ccc3c(c2)CC(=O)N3)ncc1C(F)(F)F)S(C)(=O)=O + COCC[n+]1c2c(n(Cc3cnccn3)c1C)C(=O)c1ccccc1C2=O [YM155] (first compound 0.08 µM, partner dose 0.0004 µM)	53.2%	117%	177%	51.4%	–	153%	169%	309%	109%	115%	94.3%	101%	344%	–	–
C[C@@H](N)c1ccc(C(=O)Nc2ccnc3[nH]ccc23)cc1 + C[C@@H](Oc1cc(-c2cnn(C3CCNCC3)c2)cnc1N)c1c(Cl)ccc(F)c1Cl [Crizotinib] (first compound 0.4 µM, partner dose 0.2 µM)	148%	60.7%	17%	86.1%	88.2%	92.4%	101%	62.4%	94.9%	112%	219%	84.8%	73.3%	–	–
CCN(CC)CCNC(=O)c1c(C)[nH]c(/C=C2\C(=O)Nc3ccc(F)cc32)c1C [sunitinib] + O=C(Nc1ccccc1)c1cc([N+](=O)[O-])ccc1Cl [GW9662] (first compound 0.4 µM, partner dose 2 µM)	66.7%	131%	87.8%	188%	–	64.9%	194%	46.6%	46.8%	108%	58%	88.6%	126%	127%	137%

Reformatted: entries from further up
SMILES | cleaved PARP positive nuclei fraction [1] | cleaved PARP positive nuclei fraction [2] | cleaved PARP positive nuclei fraction [3] | cleaved PARP positive nuclei fraction [4] | cleaved PARP positive nuclei fraction [5] | cleaved PARP positive nuclei fraction [6] | cleaved PARP positive nuclei fraction [7] | cleaved PARP positive nuclei fraction [8] | cleaved PARP positive nuclei fraction [9] | cleaved PARP positive nuclei fraction [10] | cleaved PARP positive nuclei fraction [11] | cleaved PARP positive nuclei fraction [12] | cleaved PARP positive nuclei fraction [13] | cleaved PARP positive nuclei fraction [14] | cleaved PARP positive nuclei fraction [15]
CC1(C)CCC(c2ccc(Cl)cc2)=C(CN2CCN(c3ccc(C(=O)NS(=O)(=O)c4ccc(N[C@H](CCN5CCOCC5)CSc5ccccc5)c(S(=O)(=O)C(F)(F)F)c4)cc3)CC2)C1 + Nc1nc(F)nc2c1ncn2[C@@H]1O[C@H](CO)[C@@H](O)[C@@H]1O [fludarabine] (first compound 0.4 µM, partner dose 0.2 µM) | 2500% | 370% | 234% | 699% | 1270% | 4230% | 678% | 4170% | 146% | 649% | 1890% | 156% | 416% | – | –
CN(c1ncccc1CNc1nc(Nc2ccc3c(c2)CC(=O)N3)ncc1C(F)(F)F)S(C)(=O)=O + COCC[n+]1c2c(n(Cc3cnccn3)c1C)C(=O)c1ccccc1C2=O [YM155] (first compound 0.08 µM, partner dose 0.0004 µM) | 53.2% | 117% | 177% | 51.4% | – | 153% | 169% | 309% | 109% | 115% | 94.3% | 101% | 344% | – | –
